PubChem BioAssay AID1224826, NIAID – 2016

- Screen: 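Regulators of Tlr4 signalling leading to Tnf-alpha expression in macrophages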 (primary screen)
- Cell system: RAW264.7 G9 macrophages from mouse bearing reporters for p65 (GFP) and the Tnf promoter (mCherry)
- Reagent: siRNA pool against mouse genes, 100 nM
- Duration: 16 h of LPS stimulation, after 2 days of siRNA transfection
- Challenge: bacterial lipopolysaccharide (Salmonella minnesota R595), 10 ng/ml
- Measured: 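Nuclear mCherry signal of the Tnf promoter reporter measured by imaging after background removal, scaled to each plate median and turned into robust z-scores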
- Reading the numbers: Tnf reporter robust z-score: higher = stronger Tnf promoter reporter signal after LPS
- Hit rule: 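a well counts as active at a score of -1.3 or below (Tlr4 knock-down control median) or above 3 (raised signal); controls and wells holding fewer than 50 cells are excluded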
- Calls: active = Tnf reporter clearly lowered or raised; inactive = no clear change in Tnf reporter
Here is an unselected part of about 17,000 reagents. Over the whole deposit, about 1,110 (6.6%) were called active. 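Active means lowered or raised reporter signal; replicate intensities are raw and not normalised per plate.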 Reagents against one gene are numbered here. Further read-outs or replicates are left out here.

Knock-down of Ahcyl1 came out at: Tnf reporter robust z-score 0.3; fewer than 50 cells in well enough cells in well; inactive.
With knock-down of Iars2 the results were Tnf reporter robust z-score 0.83; fewer than 50 cells in well enough cells in well; inactive.
For Grcc10, the values are Tnf reporter robust z-score -0.15; fewer than 50 cells in well enough cells in well; inactive.
With knock-down of Or5d38, the record shows Tnf reporter robust z-score 1.83; fewer than 50 cells in well enough cells in well; inactive.
Knock-down of Cyp39a1 came out at: Tnf reporter robust z-score 2.16; fewer than 50 cells in well enough cells in well; inactive.
After knock-down of Psmd11 the results were fewer than 50 cells in well fewer than 50 cells per well; well left out of calls; inactive.
Depletion of Ifnab gave: Tnf reporter robust z-score -0.6; fewer than 50 cells in well enough cells in well; inactive.
For Lonp2, the values are fewer than 50 cells in well fewer than 50 cells per well; well left out of calls; inactive.
With knock-down of Gpbp1l1, the screen gave fewer than 50 cells in well fewer than 50 cells per well; well left out of calls; inactive.
After knock-down of Fbp2, the screen gave Tnf reporter robust z-score 0.37; fewer than 50 cells in well enough cells in well; inactive.
Against Stmn1, the values are Tnf reporter robust z-score -0.49; fewer than 50 cells in well enough cells in well; inactive.
Against Trim9 #1, the entry reads Tnf reporter robust z-score -0.26; fewer than 50 cells in well enough cells in well; inactive.
Depletion of Trim9 #2 gave: Tnf reporter robust z-score 1.33; fewer than 50 cells in well enough cells in well; inactive.
Ppm1f scored Tnf reporter robust z-score -0.83; fewer than 50 cells in well enough cells in well; inactive.
Depletion of H2-DMb1 gave: Tnf reporter robust z-score -0.52; fewer than 50 cells in well enough cells in well; inactive.
For Tmem98, the entry reads fewer than 50 cells in well fewer than 50 cells per well; well left out of calls; inactive.
With knock-down of Cryge, the record shows Tnf reporter robust z-score 0.83; fewer than 50 cells in well enough cells in well; inactive.
Knock-down of Slc2a1 resulted in: Tnf reporter robust z-score 0.3; fewer than 50 cells in well enough cells in well; inactive.

Reprinted from the entries so far, 4 entries:
Psmd11 | fewer than 50 cells in well: fewer than 50 cells per well; well left out of calls; Call: inactive
Ifnab | Tnf reporter robust z-score: -0.6; fewer than 50 cells in well: enough cells in well; Call: inactive
Lonp2 | fewer than 50 cells in well: fewer than 50 cells per well; well left out of calls; Call: inactive
Gpbp1l1 | fewer than 50 cells in well: fewer than 50 cells per well; well left out of calls; Call: inactive

The results go on.
Against Or8g37 the deposit lists Tnf reporter robust z-score -0.89; fewer than 50 cells in well enough cells in well; inactive.
Knock-down of Mrps33 gave: Tnf reporter robust z-score -1.23; fewer than 50 cells in well enough cells in well; inactive.
Knock-down of Caprin1 resulted in: Tnf reporter robust z-score 1.91; fewer than 50 cells in well enough cells in well; inactive.
After knock-down of Or1e21 the results were Tnf reporter robust z-score -2.17; fewer than 50 cells in well enough cells in well; active.
Depletion of Or51m1 gave: Tnf reporter robust z-score 0.58; fewer than 50 cells in well enough cells in well; inactive.
For Foxn4 the deposit lists Tnf reporter robust z-score -1.17; fewer than 50 cells in well enough cells in well; inactive.
With knock-down of Pdcd10 the results were Tnf reporter robust z-score 0.78; fewer than 50 cells in well enough cells in well; inactive.
Tyro3 gave Tnf reporter robust z-score -0.33; fewer than 50 cells in well enough cells in well; inactive.
Nos2 gave Tnf reporter robust z-score 0.05; fewer than 50 cells in well enough cells in well; inactive.
